{"sequences": {"note": "Chains of the proteins cited; added tags and fusions are not shown.", "UniProt P08183": "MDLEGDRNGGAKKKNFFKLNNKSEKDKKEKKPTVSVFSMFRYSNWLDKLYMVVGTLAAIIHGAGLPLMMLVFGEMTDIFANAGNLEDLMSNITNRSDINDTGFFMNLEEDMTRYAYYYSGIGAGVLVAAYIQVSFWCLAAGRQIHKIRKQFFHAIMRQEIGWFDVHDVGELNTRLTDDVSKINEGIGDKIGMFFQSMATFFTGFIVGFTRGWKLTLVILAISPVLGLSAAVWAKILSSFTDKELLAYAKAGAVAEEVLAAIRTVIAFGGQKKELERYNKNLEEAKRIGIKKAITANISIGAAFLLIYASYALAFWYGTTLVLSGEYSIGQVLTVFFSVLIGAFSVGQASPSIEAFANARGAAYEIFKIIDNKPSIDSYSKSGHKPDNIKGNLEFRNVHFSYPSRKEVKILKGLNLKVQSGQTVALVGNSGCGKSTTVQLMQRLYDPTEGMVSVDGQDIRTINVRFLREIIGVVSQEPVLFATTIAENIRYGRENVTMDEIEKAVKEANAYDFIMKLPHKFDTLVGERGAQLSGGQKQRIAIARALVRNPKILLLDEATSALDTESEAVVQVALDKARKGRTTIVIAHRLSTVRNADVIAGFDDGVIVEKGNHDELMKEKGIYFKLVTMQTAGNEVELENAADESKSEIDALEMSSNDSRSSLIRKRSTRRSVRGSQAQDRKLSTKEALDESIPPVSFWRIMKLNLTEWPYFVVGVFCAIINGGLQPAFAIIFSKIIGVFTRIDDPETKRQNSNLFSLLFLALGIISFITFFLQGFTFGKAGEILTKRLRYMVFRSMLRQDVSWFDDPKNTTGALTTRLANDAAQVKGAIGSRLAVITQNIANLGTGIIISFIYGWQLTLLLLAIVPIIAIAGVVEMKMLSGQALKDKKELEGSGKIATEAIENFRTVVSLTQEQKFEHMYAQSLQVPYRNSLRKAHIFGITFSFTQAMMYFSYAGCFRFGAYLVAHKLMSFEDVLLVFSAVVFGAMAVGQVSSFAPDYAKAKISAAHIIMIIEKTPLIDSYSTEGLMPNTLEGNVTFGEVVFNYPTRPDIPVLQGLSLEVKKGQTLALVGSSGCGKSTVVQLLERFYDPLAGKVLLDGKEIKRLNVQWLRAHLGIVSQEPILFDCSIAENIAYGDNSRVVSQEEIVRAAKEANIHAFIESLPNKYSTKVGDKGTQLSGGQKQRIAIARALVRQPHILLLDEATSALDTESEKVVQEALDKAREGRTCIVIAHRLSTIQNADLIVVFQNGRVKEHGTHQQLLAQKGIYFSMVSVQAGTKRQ"}, "source": "paper PMC11388069", "binders": {"B1": {"name": "VPS4A (protein, UniProt Q9UN37 1-437)", "chain": "MTTSTLQKAIDLVTKATEEDKAKNYEEALRLYQHAVEYFLHAIKYEAHSDKAKESIRAKCVQYLDRAEKLKDYLRSKEKHGKKPVKENQSEGKGSDSDSEGDNPEKKKLQEQLMGAVVMEKPNIRWNDVAGLEGAKEALKEAVILPIKFPHLFTGKRTPWRGILLFGPPGTGKSYLAKAVATEANNSTFFSVSSSDLMSKWLGESEKLVKNLFELARQHKPSIIFIDEVDSLCGSRNENESEAARRIKTEFLVQMQGVGNNNDGTLVLGATNIPWVLDSAIRRRFEKRIYIPLPEEAARAQMFRLHLGSTPHNLTDANIHELARKTEGYSGADISIIVRDSLMQPVRKVQSATHFKKVCGPSRTNPSMMIDDLLTPCSPGDPGAMEMTWMDVPGDKLLEPVVCMSDMLRSLATTRPTVNADDLLKVKKFSEDFGQES"}}, "molecular_target": "wild type P-gp, full length (transfected) (UniProt P08183)", "test": "co-IP; cells transfected with P-gp, MGAT3 plus P-gp, MGAT3 plus P-gp Mut2, or full-length and truncated P-gp; immunoprecipitation and western blot", "note": "These are yes or no findings as the source states them, for the method shown. Binding seen in cells or lysates may run through a third protein. Some binding calls cover weakened binding; strength is not graded here."}
{"binder": "B1", "values": [{"measurement": "binding", "result": "binds"}]}
